The list shows a part of the results.
Compound: CC1Cc2ccccc2N1C(=O)C1CCCN(C1)C(=O)CCl (mixture of isomers) [TRIM25 ligand 11 (diastereomer mixture)]
Experiment: probe-labelled cysteine peptide fold change vs DMSO (competition) (log2 fold change); higher = less target engagement (more negative = stronger competition)
Conditions: THP-1, incubation time: 4 h
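Also: competitive chemoproteomic profiling in live THP-1 cells with an iodoacetamide desthiobiotin (IA-DTB) probe, comparing probe-labelled peptide intensities in compound-treated cells against DMSO-treated controls.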

Chains of the proteins cited; added tags and fusions are not shown. Lines headed by an entry give the natural chain unless they say otherwise; changes in a name come on top.
UniProt P55039: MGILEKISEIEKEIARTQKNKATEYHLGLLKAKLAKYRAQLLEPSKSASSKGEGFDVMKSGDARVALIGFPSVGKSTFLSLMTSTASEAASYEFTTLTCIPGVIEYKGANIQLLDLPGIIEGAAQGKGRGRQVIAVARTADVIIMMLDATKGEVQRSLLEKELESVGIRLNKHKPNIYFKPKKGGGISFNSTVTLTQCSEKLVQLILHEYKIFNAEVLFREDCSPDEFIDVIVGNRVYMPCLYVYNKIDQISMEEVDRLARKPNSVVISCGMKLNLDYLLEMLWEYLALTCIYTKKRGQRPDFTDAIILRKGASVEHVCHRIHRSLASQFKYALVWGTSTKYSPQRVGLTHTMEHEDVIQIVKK
UniProt Q12882: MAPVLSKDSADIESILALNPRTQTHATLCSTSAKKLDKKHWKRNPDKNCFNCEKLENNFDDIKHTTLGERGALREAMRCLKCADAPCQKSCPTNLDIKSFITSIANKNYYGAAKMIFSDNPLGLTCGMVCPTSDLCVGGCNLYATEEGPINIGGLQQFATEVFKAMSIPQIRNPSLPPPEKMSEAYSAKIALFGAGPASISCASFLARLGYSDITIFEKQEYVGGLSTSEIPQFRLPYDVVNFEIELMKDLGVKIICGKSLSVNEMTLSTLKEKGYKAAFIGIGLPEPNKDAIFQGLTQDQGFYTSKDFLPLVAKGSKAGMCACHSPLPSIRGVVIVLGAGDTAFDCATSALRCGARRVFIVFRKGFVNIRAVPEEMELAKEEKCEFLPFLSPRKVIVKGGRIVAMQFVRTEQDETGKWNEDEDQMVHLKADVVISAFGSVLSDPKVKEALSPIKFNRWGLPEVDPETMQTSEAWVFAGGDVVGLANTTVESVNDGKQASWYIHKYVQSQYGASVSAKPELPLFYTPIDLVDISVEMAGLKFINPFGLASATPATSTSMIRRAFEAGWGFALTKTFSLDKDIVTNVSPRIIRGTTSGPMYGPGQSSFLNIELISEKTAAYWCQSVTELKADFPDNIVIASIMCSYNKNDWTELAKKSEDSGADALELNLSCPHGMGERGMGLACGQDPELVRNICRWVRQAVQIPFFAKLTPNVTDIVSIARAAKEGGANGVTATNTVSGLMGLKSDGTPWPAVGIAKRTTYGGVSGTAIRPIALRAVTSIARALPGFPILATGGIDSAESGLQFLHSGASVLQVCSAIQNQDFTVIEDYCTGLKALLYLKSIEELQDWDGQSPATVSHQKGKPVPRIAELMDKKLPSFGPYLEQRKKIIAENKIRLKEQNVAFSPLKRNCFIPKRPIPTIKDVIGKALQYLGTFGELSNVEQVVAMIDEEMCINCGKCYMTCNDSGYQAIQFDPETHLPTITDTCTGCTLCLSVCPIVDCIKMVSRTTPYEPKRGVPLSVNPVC
UniProt P60981: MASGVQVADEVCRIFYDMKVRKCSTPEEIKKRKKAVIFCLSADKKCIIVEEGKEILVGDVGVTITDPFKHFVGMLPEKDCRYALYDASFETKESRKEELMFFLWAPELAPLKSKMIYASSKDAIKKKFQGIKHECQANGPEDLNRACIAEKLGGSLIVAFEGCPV
UniProt Q7L591: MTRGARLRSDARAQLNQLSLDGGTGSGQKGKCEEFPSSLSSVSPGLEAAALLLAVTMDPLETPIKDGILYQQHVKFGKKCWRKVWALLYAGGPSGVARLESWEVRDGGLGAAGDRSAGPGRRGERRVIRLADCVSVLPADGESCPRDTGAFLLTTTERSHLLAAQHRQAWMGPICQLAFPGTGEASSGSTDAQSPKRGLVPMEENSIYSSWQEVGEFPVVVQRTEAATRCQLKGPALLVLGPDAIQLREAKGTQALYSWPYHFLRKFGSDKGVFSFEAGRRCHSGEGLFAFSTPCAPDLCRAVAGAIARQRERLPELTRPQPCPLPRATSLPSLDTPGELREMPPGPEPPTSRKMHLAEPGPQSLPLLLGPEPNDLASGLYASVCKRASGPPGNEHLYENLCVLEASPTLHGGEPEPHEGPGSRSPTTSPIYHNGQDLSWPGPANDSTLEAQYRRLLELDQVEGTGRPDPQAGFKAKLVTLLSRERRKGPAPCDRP
UniProt Q92785, whole entry, looked up: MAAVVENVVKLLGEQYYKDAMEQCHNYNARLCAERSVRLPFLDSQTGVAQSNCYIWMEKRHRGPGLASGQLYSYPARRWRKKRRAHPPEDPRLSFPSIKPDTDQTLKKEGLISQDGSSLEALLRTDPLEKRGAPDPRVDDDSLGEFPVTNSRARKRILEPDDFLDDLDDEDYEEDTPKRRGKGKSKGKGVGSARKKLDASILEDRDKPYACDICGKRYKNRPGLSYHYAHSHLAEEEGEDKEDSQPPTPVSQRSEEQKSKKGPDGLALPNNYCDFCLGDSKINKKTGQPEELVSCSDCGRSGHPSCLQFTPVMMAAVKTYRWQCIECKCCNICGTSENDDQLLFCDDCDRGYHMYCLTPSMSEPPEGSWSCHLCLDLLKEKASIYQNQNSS
UniProt Q9BQC3: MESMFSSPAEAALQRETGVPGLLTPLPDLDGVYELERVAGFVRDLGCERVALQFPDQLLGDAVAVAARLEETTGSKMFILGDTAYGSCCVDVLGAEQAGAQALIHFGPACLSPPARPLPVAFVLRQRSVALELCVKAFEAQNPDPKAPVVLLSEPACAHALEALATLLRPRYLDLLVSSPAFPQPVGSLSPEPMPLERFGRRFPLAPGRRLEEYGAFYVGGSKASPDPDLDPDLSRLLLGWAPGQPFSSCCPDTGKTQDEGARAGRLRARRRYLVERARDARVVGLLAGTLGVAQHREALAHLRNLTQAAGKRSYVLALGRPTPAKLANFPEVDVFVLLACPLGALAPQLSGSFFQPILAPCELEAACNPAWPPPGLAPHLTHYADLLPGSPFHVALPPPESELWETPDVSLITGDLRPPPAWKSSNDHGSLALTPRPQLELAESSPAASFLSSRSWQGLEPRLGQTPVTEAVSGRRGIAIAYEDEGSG
UniProt Q6V1X1: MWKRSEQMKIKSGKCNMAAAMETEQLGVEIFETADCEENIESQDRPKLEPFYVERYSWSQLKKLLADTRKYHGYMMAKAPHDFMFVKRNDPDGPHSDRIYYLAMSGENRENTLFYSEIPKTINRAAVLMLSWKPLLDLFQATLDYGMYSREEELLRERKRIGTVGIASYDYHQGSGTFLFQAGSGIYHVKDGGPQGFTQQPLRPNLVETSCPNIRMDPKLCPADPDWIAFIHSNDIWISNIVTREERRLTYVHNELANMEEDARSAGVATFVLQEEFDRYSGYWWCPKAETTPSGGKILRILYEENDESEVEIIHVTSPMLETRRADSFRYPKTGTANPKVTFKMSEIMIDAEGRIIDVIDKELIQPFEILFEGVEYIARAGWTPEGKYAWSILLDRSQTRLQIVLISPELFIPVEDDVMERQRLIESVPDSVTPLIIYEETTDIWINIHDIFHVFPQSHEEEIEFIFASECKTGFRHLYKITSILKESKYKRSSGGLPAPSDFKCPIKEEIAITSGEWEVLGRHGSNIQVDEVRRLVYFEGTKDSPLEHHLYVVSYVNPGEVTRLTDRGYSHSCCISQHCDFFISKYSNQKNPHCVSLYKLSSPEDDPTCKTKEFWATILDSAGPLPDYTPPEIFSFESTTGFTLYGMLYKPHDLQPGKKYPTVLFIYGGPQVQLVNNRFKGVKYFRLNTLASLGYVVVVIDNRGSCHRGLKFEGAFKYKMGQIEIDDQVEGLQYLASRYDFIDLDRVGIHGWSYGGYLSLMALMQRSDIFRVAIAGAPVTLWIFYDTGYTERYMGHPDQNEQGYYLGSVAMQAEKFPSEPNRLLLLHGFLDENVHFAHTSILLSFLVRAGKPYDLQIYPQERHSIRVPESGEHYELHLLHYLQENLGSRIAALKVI
UniProt Q96N67: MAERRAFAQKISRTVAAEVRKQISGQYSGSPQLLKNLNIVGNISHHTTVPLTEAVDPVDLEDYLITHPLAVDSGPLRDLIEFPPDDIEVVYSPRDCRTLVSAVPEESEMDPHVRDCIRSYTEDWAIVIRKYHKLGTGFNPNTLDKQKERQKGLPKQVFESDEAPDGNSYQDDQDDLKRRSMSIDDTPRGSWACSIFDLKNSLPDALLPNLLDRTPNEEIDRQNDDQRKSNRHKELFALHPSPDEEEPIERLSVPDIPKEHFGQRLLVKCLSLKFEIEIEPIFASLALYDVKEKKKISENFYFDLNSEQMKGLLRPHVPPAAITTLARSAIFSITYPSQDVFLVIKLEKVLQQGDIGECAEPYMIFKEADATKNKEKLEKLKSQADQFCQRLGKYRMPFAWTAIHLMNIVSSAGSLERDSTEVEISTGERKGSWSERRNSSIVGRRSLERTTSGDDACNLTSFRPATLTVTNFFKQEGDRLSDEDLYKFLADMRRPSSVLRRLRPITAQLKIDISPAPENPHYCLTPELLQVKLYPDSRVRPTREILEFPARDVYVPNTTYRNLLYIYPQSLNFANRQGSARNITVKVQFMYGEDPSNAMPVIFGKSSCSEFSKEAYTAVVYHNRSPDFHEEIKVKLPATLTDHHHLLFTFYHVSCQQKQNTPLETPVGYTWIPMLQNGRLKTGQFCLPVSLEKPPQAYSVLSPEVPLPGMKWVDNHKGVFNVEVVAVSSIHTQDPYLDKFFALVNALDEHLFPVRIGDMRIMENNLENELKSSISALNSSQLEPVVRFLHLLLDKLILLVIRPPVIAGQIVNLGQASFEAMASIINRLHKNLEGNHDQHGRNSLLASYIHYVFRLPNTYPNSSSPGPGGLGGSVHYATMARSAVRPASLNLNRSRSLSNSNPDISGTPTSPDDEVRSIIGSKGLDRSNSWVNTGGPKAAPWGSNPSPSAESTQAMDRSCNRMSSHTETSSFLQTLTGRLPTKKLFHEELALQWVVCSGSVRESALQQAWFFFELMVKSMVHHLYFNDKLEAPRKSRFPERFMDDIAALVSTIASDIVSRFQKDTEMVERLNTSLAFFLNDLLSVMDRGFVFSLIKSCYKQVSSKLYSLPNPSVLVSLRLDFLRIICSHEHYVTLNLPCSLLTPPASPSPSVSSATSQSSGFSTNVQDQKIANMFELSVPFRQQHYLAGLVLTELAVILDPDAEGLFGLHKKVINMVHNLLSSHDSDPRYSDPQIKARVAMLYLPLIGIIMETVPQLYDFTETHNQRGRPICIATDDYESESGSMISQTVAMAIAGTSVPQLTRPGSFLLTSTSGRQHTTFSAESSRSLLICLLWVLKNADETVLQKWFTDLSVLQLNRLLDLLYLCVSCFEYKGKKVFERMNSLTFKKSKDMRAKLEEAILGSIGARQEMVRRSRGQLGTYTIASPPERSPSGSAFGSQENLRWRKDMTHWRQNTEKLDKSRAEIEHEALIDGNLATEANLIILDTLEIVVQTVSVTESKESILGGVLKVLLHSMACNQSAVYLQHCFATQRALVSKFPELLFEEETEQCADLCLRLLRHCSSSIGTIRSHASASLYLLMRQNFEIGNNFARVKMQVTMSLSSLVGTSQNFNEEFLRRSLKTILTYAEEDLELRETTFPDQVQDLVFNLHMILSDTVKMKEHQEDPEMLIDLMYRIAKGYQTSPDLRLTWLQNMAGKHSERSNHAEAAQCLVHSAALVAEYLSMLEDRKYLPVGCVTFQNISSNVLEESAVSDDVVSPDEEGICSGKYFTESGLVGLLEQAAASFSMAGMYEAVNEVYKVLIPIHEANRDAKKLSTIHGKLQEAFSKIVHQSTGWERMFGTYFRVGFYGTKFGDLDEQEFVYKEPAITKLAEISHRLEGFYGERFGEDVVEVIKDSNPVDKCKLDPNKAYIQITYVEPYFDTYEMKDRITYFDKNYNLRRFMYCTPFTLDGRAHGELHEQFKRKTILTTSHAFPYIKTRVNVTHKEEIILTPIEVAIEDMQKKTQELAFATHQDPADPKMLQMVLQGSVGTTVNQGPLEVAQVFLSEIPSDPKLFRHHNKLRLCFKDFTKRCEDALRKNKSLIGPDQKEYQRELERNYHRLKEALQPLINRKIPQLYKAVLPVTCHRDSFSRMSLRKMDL
UniProt Q9BU89: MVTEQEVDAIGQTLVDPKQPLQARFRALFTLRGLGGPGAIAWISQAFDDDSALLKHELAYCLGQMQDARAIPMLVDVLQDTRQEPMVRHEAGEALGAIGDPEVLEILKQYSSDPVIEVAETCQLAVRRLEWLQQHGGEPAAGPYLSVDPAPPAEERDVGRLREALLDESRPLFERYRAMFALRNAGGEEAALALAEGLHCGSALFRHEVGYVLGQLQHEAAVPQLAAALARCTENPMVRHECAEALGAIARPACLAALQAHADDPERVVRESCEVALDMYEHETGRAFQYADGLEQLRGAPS

| Target | probe-labelled cysteine peptide fold change (10 µM) | probe-labelled cysteine peptide fold change (50 µM) |
| --- | --- | --- |
| DRG2_P55039_319_KGASVEHVCHR (UniProt P55039) | 0.144 | 0.0899 |
| DOCK11_Q5JSL3_615_NCQNITVEVEEFVPEMTK (UniProt Q5JSL3) | 0.0107 | 0.0828 |
| DPYD_Q12882_82_CADAPCQK (UniProt Q12882) | 0.0269 | 0.145 |
| DSTN_P60981_147_ACIAEK (UniProt P60981) | 0.106 | 0.171 |
| DNMT1_P26358_1485_ACDPAAR (UniProt P26358) | 0.102 | 0.0438 |
| DOK3_Q7L591_295_CHSGEGLFAFSTPCAPDLCR (UniProt Q7L591) | -0.0286 | 0.0448 |
| DPF2_Q92785_295_TGQPEELVSCSDCGR (UniProt Q92785) | -0.0731 | -0.128 |
| DPH2_Q9BQC3_157_APVVLLSEPACAHALEALATLLRPR (UniProt Q9BQC3) | -0.0622 | -0.0956 |
| DYNC1H1_Q14204_4216_SACDTVDTWLDDTAK (UniProt Q14204) | -0.0825 | 0.0148 |
| DPP8_Q6V1X1_506_CPIKEEIAITSGEWEVLGR (UniProt Q6V1X1) | 0.0767 | -0.0458 |
| DPP9_Q86TI2_225_RLTFCHQGLSNVLDDPK (UniProt Q86TI2) | 0.134 | 0.136 |
| DYRK1A_Q13627_551_HSGGHFTAAVQAMDCETHSPQVR (UniProt Q13627) | 0.068 | -0.236 |
| DOCK7_Q96N67_1710_SNHAEAAQCLVHSAALVAEYLSMLEDRK (UniProt Q96N67) | -0.0382 | -0.182 |
| DOHH_Q9BU89_242_HECAEALGAIAR (UniProt Q9BU89) | -0.0923 | 0.13 |

Single records (already shown).
DPH2_Q9BQC3_157_APVVLLSEPACAHALEALATLLRPR (UniProt Q9BQC3) as listed: probe-labelled cysteine peptide fold change (10 µM): -0.0622; probe-labelled cysteine peptide fold change (50 µM): -0.0956
DYRK1A_Q13627_551_HSGGHFTAAVQAMDCETHSPQVR (UniProt Q13627) as listed: probe-labelled cysteine peptide fold change (10 µM): 0.068; probe-labelled cysteine peptide fold change (50 µM): -0.236
